Binding data for one molecule are collected here from paper doi:10.1101/2022.11.03.515106 (bioRxiv, 2022).

No constants are given. Whether binding was seen depends on the method and setting. Binding seen in cells or lysates may run through a third protein. Binding calls can cover weak binding; strength is not graded here.

Assay [1] deals with Flag-TTDN1 lacking the N-terminus (deletion analysis, Figure 2d-e) (human). Put plainly: co-IP.
Assay [2] has as its target Flag-TTDN1 CR1-2 domain (human). Put plainly: co-IP.

B1: endogenous DBR1 (enzyme, UniProt Q9UK59 1-544)
chain: MRVAVAGCCHGELDKIYETLALAERRGPGPVDLLLCCGDFQAVRNEADLRCMAVPPKYRHMQTFYRYYSGEKKAPVLTLFIGGNHEASNHLQELPYGGWVAPNIYYLGLAGVVKYRGVRIGGISGIFKSHDYRKGHFECPPYNSSTIRSIYHVRNIEVYKLKQLKQPIDIFLSHDWPRSIYHYGNKKQLLKTKSFFRQEVENNTLGSPAASELLEHLKPTYWFSAHLHVKFAALMQHQAKDKGQTARATKFLALDKCLPHRDFLQILEIEHDPSAPDYLEYDIEWLTILRATDDLINVTGRLWNMPENNGLHARWDYSATEEGMKEVLEKLNHDLKVPCNFSVTAACYDPSKPQTQMQLIHRINPQTTEFCAQLGIIDINVRLQKSKEEHHVCGEYEEQDDVESNDSGEDQSEYNTDTSALSSINPDEIMLDEEEDEDSIVSAHSGMNTPSVEPSDQASEFSASFSDVRILPGSMIVSSDDTVDSTIDREGKPGGTVESGNGEDLTKVPLKRLSDEHEPEQRKKIKRRNQAIYAAVDDDDDDAA
As for B1, the binding entry in assay [1] and in assay [2] was “binds” throughout.
